Values from PubChem BioAssay AID1259308 (NCATS, 2017).
The whole screen tested about 59,000 reagents; shown is a part drawn at random. About 1,510 of them (2.6%) count as active. 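Calls use total luciferase alone and ignore viability, so some active siRNAs may act by altering cell number.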 Entries without a mark were called inactive. The numbers tell different reagents against one gene apart. Not all columns of the deposit are shown. Reagent sequences are not shown.

- Assay: 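Genes whose loss raises luciferase production in HEK293 cells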 (primary screen)
- System: human HEK293 embryonic kidney cells stably expressing firefly luciferase (HEK-CMV-Luc2-Hygro)
- Reagent: single siRNA against human genes, 0.8 pmol siRNA per well
- Time to read-out: 72 h
- Detection: 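Luciferase light (ONE-Glo) measured on one replicate plate set and viability (CellTiter-Glo) on the other, scaled to a negative control siRNA, with robust z-scores and luciferase per cell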
- Scale: total luciferase, z-score and total luciferase, % of control: higher = more reporter protein produced
- Rule for the call: 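An siRNA counts as active if its total luciferase robust z-score exceeds 3; genes with two or more such siRNAs out of three were retested with fresh siRNAs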
- Meaning of the calls: active = raised luciferase; inactive = no rise

| target gene | reagent no. | total luciferase, z-score | total luciferase, % of control |
| --- | --- | --- | --- |
| EIF3G | 1 | -1.72 | 47.6 |
| EIF3G | 2 | -2.51 | 32.1 |
| EIF3G | 3 | -2.86 | 25 |
| MCOLN2 | 1 | 0.0568 | 83 |
| MCOLN2 | 2 | -0.21 | 77.7 |
| MCOLN2 | 3 | -1.19 | 58.2 |
| IL4I1 | 1 | -0.47 | 72.5 |
| IL4I1 | 2 | -0.487 | 72.2 |
| IL4I1 | 3 | -0.446 | 73 |
| MOCS1 | 1 | -0.901 | 64 |
| MOCS1 | 2 | 0.31 | 88 |
| MOCS1 | 3 | 0.0624 | 83.1 |
| CLASP2 | 1 | 0.82 | 98.2 |
| CLASP2 | 2 | 0.477 | 91.4 |
| CLASP2 | 3 | -2.55 | 31.2 |
| SLC35B4 | 1 | 0.654 | 94.9 |
| SLC35B4 | 2 | -0.542 | 71.1 |
| SLC35B4 | 3 | -1.12 | 59.6 |
| RICTOR | 1 | -0.613 | 69.7 |
| RICTOR | 2 | -0.477 | 72.4 |
| RICTOR | 3 | -1.26 | 56.8 |
| SGCZ | 1 | 0.463 | 91.1 |
| SGCZ | 2 | -0.46 | 72.7 |
| SGCZ | 3 | -0.193 | 78 |
| NYNRIN | 1 | -1.23 | 57.4 |
| NYNRIN | 2 | -0.013 | 81.6 |
| NYNRIN | 3 | -0.536 | 71.2 |
| FBXO16 | 1 | 0.132 | 84.5 |
| FBXO16 | 2 | 0.938 | 101 |
| FBXO16 | 3 | 0.918 | 100 |
| DNAJB8 | 1 | 0.522 | 92.3 |
| DNAJB8 | 2 | 0.0659 | 83.2 |
| DNAJB8 | 3 | -0.236 | 77.2 |
| CA7 | 1 | 0.321 | 88.3 |
| CA7 | 2 | 0.922 | 100 |
| CA7 | 3 | 1.1 | 104 |
| EGR3 | 1 | 0.723 | 96.3 |
| EGR3 | 2 | -1.55 | 51.1 |
| EGR3 | 3 | 0.449 | 90.8 |
| OAZ2 | 1 | 0.657 | 94.9 |
| OAZ2 | 2 | 0.68 | 95.4 |
| OAZ2 | 3 | 0.782 | 97.4 |
| MIER2 | 1 | -0.524 | 71.5 |
| MIER2 | 2 | -0.103 | 79.8 |
| MIER2 | 3 | -0.207 | 77.8 |
| ASPN | 1 | -1.21 | 57.8 |
| ASPN | 2 | 1.3 | 108 |
| ASPN | 3 | -2.98 | 22.6 |
| NLRX1 | 1 | -1.11 | 59.8 |
| NLRX1 | 2 | -1.26 | 56.8 |
| NLRX1 | 3 | -1.2 | 57.9 |
| TCEAL2 | 1 | 0.175 | 85.4 |
| TCEAL2 | 2 | 0.576 | 93.3 |
| TCEAL2 | 3 | 0.865 | 99.1 |
| GLS | 1 | -0.996 | 62.1 |
| GLS | 2 | -0.0106 | 81.7 |
| GLS | 3 | -1.1 | 60 |
| TINCR | 1 | -0.523 | 71.5 |
| TINCR | 2 | 0.0989 | 83.9 |
| TINCR | 3 | 0.983 | 101 |
| LEMD3 | 1 | -1.03 | 61.5 |
| LEMD3 | 2 | -1.07 | 60.6 |
| LEMD3 | 3 | -0.684 | 68.3 |
| MRRF | 1 | -0.0723 | 80.4 |
| MRRF | 2 | 2.97 | 141 |
| MRRF | 3 | -1.17 | 58.6 |
| ZNF137P | 1 | -0.944 | 63.1 |
| ZNF137P | 2 | 0.78 | 97.4 |
| ZNF137P | 3 | 0.945 | 101 |
| CCDC70 | 1 | -0.775 | 66.5 |
| CCDC70 | 2 | 0.00521 | 82 |
| CCDC70 | 3 | 1.63 | 114 |
| HCST | 1 | -3.05 | 21.2 |
| HCST | 2 | -0.114 | 79.6 |
| HCST | 3 | -0.466 | 72.6 |

12 of these entries, reformatted:
target gene,reagent no.,"total luciferase, z-score","total luciferase, % of control"
ASPN,2,1.3,108
ASPN,3,-2.98,22.6
NLRX1,1,-1.11,59.8
NLRX1,2,-1.26,56.8
NLRX1,3,-1.2,57.9
TCEAL2,1,0.175,85.4
TCEAL2,2,0.576,93.3
TCEAL2,3,0.865,99.1
GLS,1,-0.996,62.1
GLS,2,-0.0106,81.7
GLS,3,-1.1,60
TINCR,1,-0.523,71.5
